Laboratory results reported in PubChem BioAssay AID330 (DTP/NCI, 2004).
The list shows only some results of the screen, not a fair sample: it gathers tests that were run many times, whatever their T/C, doses with no T/C, and many T/C values between a quarter and a half above the control. Further doses and runs are listed elsewhere. T/C: endpoint of the treated group in % of that of the vehicle group. Some entries give survivors of the animals treated and no T/C: the source files T/C as zero there, which appears to mark a toxic dose or a test without result, not a measured value. Some doses without a T/C left all or most animals alive at the check, yet need not have been tolerated: survival well below the control is almost never listed, so the zero probably covers shortened survival too. Survivors were counted at the toxicity check, usually on the fifth day, unless a day is given; later deaths do not show. Schedule codes are those of the source, read here as Q, the interval in days (D) or hours (H), X, the number of doses. Some doses were run more than once; the results are listed from low to high. For survival time, the PubChem record calls one and a half times the control and up active, and a quarter to a half above the control has no call in these data; cut-offs in other NCI protocols can differ.

Tested on: P388 leukemia ip, CD2F1 mice, survival T/C
Experiment: NCI In Vivo Anticancer Drug Screen. Data for tumor model P388 Leukemia (intraperitoneal) in CD2F1 (CDF1) mice
Details: T/C endpoint: median survival time, higher T/C = longer survival
[1] = dose: 200.0 mg/kg/injection, schedule: Q01DX005 (ip), vehicle: saline
[2] = dose: 200.0 mg/kg/injection, schedule: Q01DX009 (ip), vehicle: Klucel (hydroxypropylcellulose) (HPC)
[3] = dose: 50.0 mg/kg/injection, schedule: Q01DX009 (ip), vehicle: saline with Tween-80
[4] = dose: 100.0 mg/kg/injection, schedule: Q01DX009 (ip), vehicle: saline with Tween-80
[5] = dose: 200.0 mg/kg/injection, schedule: Q01DX009 (ip), vehicle: saline with Tween-80
[6] = dose: 120.0 mg/kg/injection, schedule: Q01DX005 (ip), vehicle: Klucel (hydroxypropylcellulose) (HPC)
[7] = dose: 240.0 mg/kg/injection, schedule: Q01DX005 (ip), vehicle: Klucel (hydroxypropylcellulose) (HPC)
[8] = dose: 25.0 mg/kg/injection, schedule: Q01DX009 (ip), vehicle: water
[9] = dose: 200.0 mg/kg/injection, schedule: Q01DX005 (ip), vehicle: saline with Tween-80
[10] = dose: 50.0 mg/kg/injection, schedule: Q01DX005 (ip), vehicle: saline with Tween-80
[11] = dose: 100.0 mg/kg/injection, schedule: Q01DX005 (ip), vehicle: saline with Tween-80

For `C[CH2][Sn]([CH2]C)([CH2]CC(=O)OC)[CH2]CC(=O)OC`, the T/C (dose: 50.0 mg/kg/injection, schedule: Q01DX005 (ip), vehicle: saline) was 126 and 130 % of control, the T/C (dose: 100.0 mg/kg/injection, schedule: Q01DX005 (ip), vehicle: saline) was 141 % of control and the survivor count [1] was 1 of 6.

In the case of `O=C(O)c1ccc2c3c(ccc(C(=O)O)c13)CC2`, the survivor count [2] was 1 of 6.

In the case of `O=S1(=O)C=C(c2ccccc2)S(=O)(=O)C=C1c1ccccc1`, the survivor count (dose: 400.0 mg/kg/injection, schedule: Q04DX003 (ip), vehicle: saline with Tween-80) was 6 of 6.

`CCOC(=O)C1=CC(C)(C)OC1=O` was tested, and the survivor count (dose: 480.0 mg/kg/injection, schedule: Q01DX005 (ip), vehicle: saline with Tween-80) was 1 of 6.

`CCCCCCCCCCCCCCCC[N+](C)(C)CCOS(C)(=O)=O` was tested, and the T/C (dose: 12.5 mg/kg/injection, schedule: Q01DX009 (ip), vehicle: saline with Tween-80) was 125 % of control, the T/C (dose: 25.0 mg/kg/injection, schedule: Q01DX009 (ip), vehicle: saline with Tween-80) was 131 % of control and the T/C [3] was 125 % of control. The survivor count [3] was 3 of 6 and 5 of 6, the survivor count [4] was 0 of 6 and the survivor count [5] was 0 of 6.

For `C=CC(Br)CCCBr` (configuration not stated), the survivor count (dose: 200.0 mg/kg/injection, schedule: Q04DX002 (ip), vehicle: saline with Tween-80) was 0 of 5 and the survivor count (dose: 400.0 mg/kg/injection, schedule: Q04DX002 (ip), vehicle: saline with Tween-80) was 0 of 5.

With `Cc1ccnc2cc(N(C)C)ccc12` the survivor count [6] was 0 of 6 and the survivor count [7] was 0 of 6.

For `CCC(O)(C(=O)O)c1cc[n+](Cc2cnc3ccccc3c2)cc1C` (configuration not stated), the survivor count (dose: 50.0 mg/kg/injection, schedule: Q01DX005 (ip), vehicle: Klucel (hydroxypropylcellulose) (HPC)) was 6 of 6, the survivor count (dose: 100.0 mg/kg/injection, schedule: Q01DX005 (ip), vehicle: Klucel (hydroxypropylcellulose) (HPC)) was 2 of 6 and the survivor count (dose: 200.0 mg/kg/injection, schedule: Q01DX005 (ip), vehicle: Klucel (hydroxypropylcellulose) (HPC)) was 0 of 6.

For `COc1cccc2c1C(=O)c1c(O)c3c(c(O)c1C2=O)C[C@@](O)(/C(C)=N\NC(=O)CO)C[C@@H]3OC1CC(N)C(O)C(C)O1` (some centres not stated), the T/C (dose: 0.25 mg/kg/injection, schedule: Q01DX009 (ip), vehicle: water) was 126 % of control, the T/C (dose: 0.44 mg/kg/injection, schedule: Q04DX003 (ip), vehicle: saline) was 127 % of control and the T/C (dose: 0.5 mg/kg/injection, schedule: Q01DX009 (ip), vehicle: water) was 136 % of control. The T/C (dose: 0.66 mg/kg/injection, schedule: Q01DX009 (ip), vehicle: saline) was 139 % of control, the T/C (dose: 0.66 mg/kg/injection, schedule: Q04DX003 (ip), vehicle: saline) was 140 % of control and the T/C (dose: 0.88 mg/kg/injection, schedule: Q04DX003 (ip), vehicle: saline) was 145 % of control. The T/C (dose: 1.0 mg/kg/injection, schedule: Q01DX009 (ip), vehicle: water) was 144 % of control, the T/C (dose: 2.5 mg/kg/injection, schedule: Q04DX003 (ip), vehicle: water) was 126 % of control and the T/C (dose: 5.0 mg/kg/injection, schedule: Q04DX003 (ip), vehicle: water) was 135 % of control. The T/C (dose: 10.0 mg/kg/injection, schedule: Q04DX003 (ip), vehicle: water, evaluated on day 30) was 138 % of control, the T/C (dose: 10.0 mg/kg/injection, schedule: Q04DX003 (ip), vehicle: water, evaluated on day 45) was 132 % of control and the survivor count (dose: 12.5 mg/kg/injection, schedule: Q01DX009 (ip), vehicle: water) was 3 of 6. For the same compound, the T/C (dose: 20.0 mg/kg/injection, schedule: Q04DX003 (ip), vehicle: water, evaluated on day 30) was 143 % of control, the T/C (dose: 20.0 mg/kg/injection, schedule: Q04DX003 (ip), vehicle: water, evaluated on day 45) was 125 % of control and the survivor count [8] was 1 of 6. For the same compound, the T/C (dose: 40.0 mg/kg/injection, schedule: Q04DX003 (ip), vehicle: water) was 135 % of control, the T/C (dose: 88.0 micrograms/kg/injection, schedule: Q01DX009 (ip), vehicle: saline) was 135 % of control and the T/C (dose: 133.0 micrograms/kg/injection, schedule: Q01DX009 (ip), vehicle: saline) was 133 % of control. For the same compound, the T/C (dose: 200.0 micrograms/kg/injection, schedule: Q01DX009 (ip), vehicle: saline) was 133 % of control and the T/C (dose: 300.0 micrograms/kg/injection, schedule: Q01DX009 (ip), vehicle: saline) was 146 % of control.

`COC(=O)[CH2][Ge]([c]1ccccc1)[c]1ccccc1.COC(=O)[CH2][Ge]([c]1ccccc1)[c]1ccccc1` was tested, and the survivor count (dose: 60.0 mg/kg/injection, schedule: Q01DX005 (ip), vehicle: Klucel (hydroxypropylcellulose) (HPC)) was 6 of 6, the survivor count [6] was 5 of 6 and the survivor count [7] was 2 of 6.

`CC(C)(C)[Si](C)(C)CC#C[Si](C)(C)C` was tested, and the survivor count [9] was 0 of 6.

For `O=NNc1ccc(I)cn1`, the T/C (dose: 3.13 mg/kg/injection, schedule: Q01DX009 (ip), vehicle: water) was 131 % of control, the T/C (dose: 6.25 mg/kg/injection, schedule: Q01DX009 (ip), vehicle: water) was 146 % of control and the survivor count [8] was 5 of 6 and 6 of 6. The survivor count (dose: 50.0 mg/kg/injection, schedule: Q01DX009 (ip), vehicle: water) was 1 of 6.

For `Nc1nn(-c2ccc(Br)cc2)c2cccc[n+]12`, the survivor count (dose: 100.0 mg/kg/injection, schedule: Q01DX009 (ip), vehicle: other) was 5 of 6, the survivor count [4] was 1 of 6 and the survivor count (dose: 200.0 mg/kg/injection, schedule: Q01DX009 (ip), vehicle: other) was 1 of 6. The survivor count [5] was 0 of 6 and the survivor count (dose: 400.0 mg/kg/injection, schedule: Q01DX009 (ip), vehicle: other) was 0 of 6.

In the case of `Cc1ccc(C(=O)c2ccc[n+](C)c2)cc1`, the survivor count [1] was 0 of 6.

With `Cc1[nH]c(C)c2c(=O)ccsc12` the survivor count (dose: 240.0 mg/kg/injection, schedule: Q01DX005 (ip), vehicle: saline with Tween-80) was 6 of 6.

`C#CCOC(=O)C12CCC(C)(C)CC1C1=CCC3C4(C)CCC(O)C(C)(CO)C4CCC3(C)C1(C)CC2` (configuration not stated) was tested, and the survivor count [10] was 6 of 6, the survivor count [11] was 6 of 6 and the survivor count [9] was 6 of 6.

With `N#Cc1nccnc1C#N` the survivor count (dose: 100.0 mg/kg/injection, schedule: Q01DX009 (ip), vehicle: Klucel (hydroxypropylcellulose) (HPC)) was 3 of 6 and the survivor count [2] was 0 of 6.

With `CC(=O)Nc1ccc(S(=O)(=O)c2ccc([N+](=O)[O-])s2)cc1` the survivor count (dose: 100.0 mg/kg/injection, schedule: Q04DX003 (ip), vehicle: Klucel (hydroxypropylcellulose) (HPC)) was 1 of 6.

With `O=C(O)c1cc2c(c(C(=O)O)c1O)CCCC2` the survivor count [10] was 0 of 5, the survivor count [11] was 0 of 5 and the survivor count [9] was 0 of 5.

`C[C@@]12CCCC1=[N+]1CCc3ccccc3[C@@H]1CC2=O` was tested, and the survivor count (dose: 400.0 mg/kg/injection, schedule: Q04DX002 (ip), vehicle: Klucel (hydroxypropylcellulose) (HPC)) was 0 of 6.

`C=C1C(=O)OC2CC(C)C3C=CC(=O)C3CC12` (configuration not stated) was tested, and the survivor count (dose: 1.2 mg/kg/injection, schedule: Q01DX009 (ip), vehicle: Klucel (hydroxypropylcellulose) (HPC)) was 6 of 6, the survivor count (dose: 4.69 mg/kg/injection, schedule: Q01DX009 (ip), vehicle: Klucel (hydroxypropylcellulose) (HPC)) was 3 of 6 and the survivor count (dose: 9.38 mg/kg/injection, schedule: Q01DX009 (ip), vehicle: Klucel (hydroxypropylcellulose) (HPC)) was 0 of 6.
